Reference: article PMC7044199
These are yes or no findings as the source states them, for the method shown. Binding seen in cells or lysates may run through a third protein. Some binding calls cover weakened binding; strength is not graded here.

Sequences of proteins named here, by UniProt entry; tags and fusion partners are left off.
UniProt P19474: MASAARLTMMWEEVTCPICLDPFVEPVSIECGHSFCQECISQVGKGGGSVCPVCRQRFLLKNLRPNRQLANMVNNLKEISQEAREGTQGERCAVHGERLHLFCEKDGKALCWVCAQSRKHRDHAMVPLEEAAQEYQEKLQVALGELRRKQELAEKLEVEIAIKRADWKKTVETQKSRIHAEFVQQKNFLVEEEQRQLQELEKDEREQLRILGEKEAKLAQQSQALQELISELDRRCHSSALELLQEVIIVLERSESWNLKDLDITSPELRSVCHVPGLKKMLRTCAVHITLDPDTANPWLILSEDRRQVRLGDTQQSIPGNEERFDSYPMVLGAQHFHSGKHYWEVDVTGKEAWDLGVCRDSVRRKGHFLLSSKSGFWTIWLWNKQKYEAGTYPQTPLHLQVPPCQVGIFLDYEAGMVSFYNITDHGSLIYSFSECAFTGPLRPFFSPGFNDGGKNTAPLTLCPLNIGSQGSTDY

Target: Tripartite motif-containing protein 21 (TRIM21), endogenous (human (endogenous in MCF-7, T-47D, MDA-MB-231, MCF-10A)) (UniProt P19474)
Assay: co-IP; endogenous proteins in lysates of MCF-7, T-47D, MDA-MB-231 and MCF-10A cells; lysis buffer 50 mM Tris-HCl pH 8.0, 0.5% NP40, 150 mM NaCl, 1 mM EDTA, 0.5% sodium deoxycholate; 3 ug antibody overnight at 4 C, protein A/G Sepharose; IP with SET7/9 antibodies and the reciprocal IP with TRIM21 …

B1: SET7/9, endogenous (enzyme, UniProt Q8WTS6 1-366)
chain: MDSDDEMVEEAVEGHLDDDGLPHGFCTVTYSSTDRFEGNFVHGEKNGRGKFFFFDGSTLEGYYVDDALQGQGVYTYEDGGVLQGTYVDGELNGPAQEYDTDGRLIFKGQYKDNIRHGVCWIYYPDGGSLVGEVNEDGEMTGEKIAYVYPDERTALYGKFIDGEMIEGKLATLMSTEEGRPHFELMPGNSVYHFDKSTSSCISTNALLPDPYESERVYVAESLISSAGEGLFSKVAVGPNTVMSFYNGVRITHQEVDSRDWALNGNTLSLDEETVIDVPEPYNHVSKYCASLGHKANHSFTPNCIYDMFVHPRFGPIKCIRTLRAVEADEELTVAYGYDHSPPGKSGPEAPEWYQVELKAFQATQQK
  binding: binds
